Assay results: the supplement of paper PMC8728848
The other results are listed elsewhere or left out.

How the values were obtained:
Test in all cases: glycan array binding signal (z-score within array); higher = stronger binding
Settings in all cases: glycan notation: IUPAC condensed, linker removed
[1] = molecular target: Fuc(a1-2)Gal
Outline: (§1)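 From the Consortium for Functional Glycomics database, 3228 arrays were curated, keeping only those whose protein sequence was available. Binding is given as a within-array Z-score averaged across arrays sharing a protein sequence and across linkers. Negative Z-scores can be read as non-binding.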

[2] = molecular target: Fuc(a1-2)Gal(b1-3)GalNAc
Outline: as §1

[3] = molecular target: Fuc(a1-2)Gal(b1-3)GalNAc(a1-3)[Fuc(a1-2)]Gal(b1-4)Glc
Outline: as §1

[4] = molecular target: Fuc(a1-2)Gal(b1-3)GalNAc(a1-3)[Fuc(a1-2)]Gal(b1-4)GlcNAc
Outline: as §1

[5] = molecular target: Fuc(a1-2)Gal(b1-3)GalNAc(b1-3)Gal
Outline: as §1

[6] = molecular target: Fuc(a1-2)Gal(b1-3)GalNAc(b1-3)Gal(a1-4)Gal(b1-4)Glc
Outline: as §1

[7] = molecular target: Fuc(a1-2)Gal(b1-3)GalNAc(b1-4)[Neu5Ac(a2-3)]Gal(b1-4)Glc
Outline: as §1

[8] = molecular target: Fuc(a1-2)Gal(b1-3)GlcNAc
Outline: as §1

[9] = molecular target: Fuc(a1-2)Gal(b1-3)GlcNAc(b1-2)Man(a1-3)[Fuc(a1-2)Gal(b1-3)GlcNAc(b1-2)Man(a1-6)]Man(b1-4)GlcNAc(b1-4)GlcNAc
Outline: as §1

[10] = molecular target: Fuc(a1-2)Gal(b1-3)GlcNAc(b1-2)Man(a1-3)[Fuc(a1-2)Gal(b1-3)GlcNAc(b1-2)Man(a1-6)]Man(b1-4)GlcNAc(b1-4)[Fuc(a1-6)]GlcNAc
Outline: as §1

[11] = molecular target: Fuc(a1-2)Gal(b1-3)GlcNAc(b1-3)Gal(b1-4)Glc
Outline: as §1

[12] = molecular target: Fuc(a1-2)Gal(b1-3)GlcNAc(b1-3)GalNAc
Outline: as §1

[13] = molecular target: Fuc(a1-2)Gal(b1-3)GlcNAc(b1-3)[Fuc(a1-2)Gal(b1-3)GlcNAc(b1-6)]GalNAc
Outline: as §1

[14] = molecular target: Fuc(a1-2)Gal(b1-3)GlcNAc(b1-3)[Gal(b1-4)GlcNAc(b1-6)]Gal(b1-4)Glc
Outline: as §1

[15] = molecular target: Fuc(a1-2)Gal(b1-3)GlcNAc(b1-3)[Neu5Ac(a2-6)Gal(b1-4)GlcNAc(b1-6)]Gal(b1-4)Glc
Outline: as §1

[16] = molecular target: Fuc(a1-2)Gal(b1-3)GlcNAc6S
Outline: as §1

[17] = molecular target: Fuc(a1-2)Gal(b1-3)[Fuc(a1-4)]GlcNAc
Outline: as §1

[18] = molecular target: Fuc(a1-2)Gal(b1-3)[Fuc(a1-4)]GlcNAc(b1-2)Man(a1-3)[Fuc(a1-2)Gal(b1-3)[Fuc(a1-4)]GlcNAc(b1-2)Man(a1-3)]Man(b1-4)GlcNAc(b1-4)GlcNAc
Outline: as §1

[19] = molecular target: Fuc(a1-2)Gal(b1-3)[Fuc(a1-4)]GlcNAc(b1-2)Man(a1-3)[Fuc(a1-2)Gal(b1-3)[Fuc(a1-4)]GlcNAc(b1-2)Man(a1-6)]Man(b1-4)GlcNAc(b1-4)[Fuc(a1-6)]GlcNAc(b1-4)[Fuc(a1-6)]GlcNAc
Outline: as §1

[20] = molecular target: Fuc(a1-2)Gal(b1-3)[Fuc(a1-4)]GlcNAc(b1-3)[Fuc(a1-3)[Gal(b1-4)]GlcNAc(b1-6)]Gal(b1-4)Glc
Outline: as §1

[21] = molecular target: Fuc(a1-2)Gal(b1-3)[Fuc(a1-4)]GlcNAc(b1-3)[Gal(b1-4)GlcNAc(b1-6)]Gal(b1-4)Glc
Outline: as §1

[22] = molecular target: Fuc(a1-2)Gal(b1-4)Glc
Outline: as §1

[23] = molecular target: Fuc(a1-2)Gal(b1-4)Glc6S
Outline: as §1

[24] = molecular target: Fuc(a1-2)Gal(b1-4)GlcNAc
Outline: as §1

[25] = molecular target: Fuc(a1-2)Gal(b1-4)GlcNAc(b1-2)Man
Outline: as §1

[26] = molecular target: Fuc(a1-2)Gal(b1-4)GlcNAc(b1-2)Man(a1-3)[Fuc(a1-2)Gal(b1-4)GlcNAc(b1-2)Man(a1-6)]Man(b1-4)GlcNAc(b1-4)GlcNAc
Outline: as §1

[27] = molecular target: Fuc(a1-2)Gal(b1-4)GlcNAc(b1-2)Man(a1-3)[Fuc(a1-2)Gal(b1-4)GlcNAc(b1-2)Man(a1-6)]Man(b1-4)GlcNAc(b1-4)[Fuc(a1-6)]GlcNAc
Outline: as §1

[28] = molecular target: Fuc(a1-2)Gal(b1-4)GlcNAc(b1-2)[Fuc(a1-2)Gal(b1-4)GlcNAc(b1-4)]Man(a1-3)[Fuc(a1-2)Gal(b1-4)GlcNAc(b1-2)Man(a1-6)]Man(b1-4)GlcNAc(b1-4)GlcNAc
Outline: as §1

[29] = molecular target: Fuc(a1-2)Gal(b1-4)GlcNAc(b1-3)Gal(b1-4)GlcNAc
Outline: as §1

[30] = molecular target: Fuc(a1-2)Gal(b1-4)GlcNAc(b1-3)Gal(b1-4)GlcNAc(b1-2)Man(a1-3)[Fuc(a1-2)Gal(b1-4)GlcNAc(b1-3)Gal(b1-4)GlcNAc(b1-2)Man(a1-6)]Man(b1-4)GlcNAc(b1-4)GlcNAc
Outline: as §1

B1: TAL6-4LysM (Trichoderma atroviride) (protein)
chain: AADSIPSISPTGIITPTPTQSGMVSNCNKFYDVHSNDGCSAIASSQHVDLSSLYKWNPAIKTDCSGLQASVYVCIGILTTSMSTTSKLPTTTSKPSTTSKPPTGITTPTPTQSGMVKNCNKFYDVHSGDGCSAIASSQKVNLSSFYLWNPAVKTDCSGLQASVFVCIGTLTTSMSTTTSKLPTTTSKPSTTSKPPTGIITPTPTQNGMVKNCNKFYDVHSGDGCSAIASSQKVNLSSFYLWNPAVKTDCSGLQASVFVCVGTATTTTAAGITTPTPTQSGMVSGCNKFYDVHAGDGCSAIASSQKIALSSLYKWNPAVKTDCSGLQASVYICIGVGNAAAARVTGALEQKLISEEDLNSAVDHHHHHH
[1]
  glycan array binding signal (z-score): 0.293
[2]
  glycan array binding signal (z-score): -1.32
[3]
  glycan array binding signal (z-score): -0.861
[4]
  glycan array binding signal (z-score): -1.21
[5]
  glycan array binding signal (z-score): -0.335
[6]
  glycan array binding signal (z-score): -1.13
[7]
  glycan array binding signal (z-score): -0.07
[8]
  glycan array binding signal (z-score): -0.262
[9]
  glycan array binding signal (z-score): -0.556
[10]
  glycan array binding signal (z-score): -1.31
[11]
  glycan array binding signal (z-score): -0.135
[12]
  glycan array binding signal (z-score): 0.317
[13]
  glycan array binding signal (z-score): 0.821
[14]
  glycan array binding signal (z-score): -1.08
[15]
  glycan array binding signal (z-score): -0.069
[16]
  glycan array binding signal (z-score): 1.83
[17]
  glycan array binding signal (z-score): -0.67
[18]
  glycan array binding signal (z-score): 0.691
[19]
  glycan array binding signal (z-score): 0.277
[20]
  glycan array binding signal (z-score): -1.17
[21]
  glycan array binding signal (z-score): 0.295
[22]
  glycan array binding signal (z-score): 0.401
[23]
  glycan array binding signal (z-score): -1.12
[24]
  glycan array binding signal (z-score): 1.98
[25]
  glycan array binding signal (z-score): -0.525
[26]
  glycan array binding signal (z-score): -0.793
[27]
  glycan array binding signal (z-score): 0.557
[28]
  glycan array binding signal (z-score): 0.282
[29]
  glycan array binding signal (z-score): 0.858
[30]
  glycan array binding signal (z-score): 0.751
